Data from article doi:10.1101/2024.09.19.613943.
These are yes or no findings as the source states them, for the method shown. Binding seen in cells or lysates may run through a third protein. These calls come from enrichment with a bait or labelling near it, and not all partners need be listed.

Chains of the proteins cited; added tags and fusions are not shown.
UniProt Q04744: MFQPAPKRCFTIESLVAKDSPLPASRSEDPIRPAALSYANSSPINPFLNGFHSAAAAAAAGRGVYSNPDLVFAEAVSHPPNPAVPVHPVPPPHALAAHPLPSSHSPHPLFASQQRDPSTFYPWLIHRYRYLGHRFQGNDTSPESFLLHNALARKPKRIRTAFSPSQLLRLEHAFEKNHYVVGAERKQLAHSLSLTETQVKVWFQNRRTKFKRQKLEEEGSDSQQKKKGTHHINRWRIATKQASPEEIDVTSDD

Target: Emx2-3xFlag-V5 (transiently overexpressed in P19 cells) (UniProt Q04744)
Test: affinity purification with mass spectrometry

B1: Ldb1, endogenous in P19 cells (protein, UniProt P70662 1-411)
chain: MSVGCACPGCSSKSFKLYSPKEPPNGNAFPPFHPGTMLDRDVGPTPMYPPTYLEPGIGRHTPYGNQTDYRIFELNKRLQNWTEECDNLWWDAFTTEFFEDDAMLTITFCLEDGPKRYTIGRTLIPRYFRSIFEGGATELYYVLKHPKEAFHSNFVSLDCDQGSMVTQHGKPMFTQVCVEGRLYLEFMFDDMMRIKTWHFSIRQHRELIPRSILAMHAQDPQMLDQLSKNITRCGLSNSTLNYLRLCVILEPMQELMSRHKTYSLSPRDCLKTCLFQKWQRMVAPPAEPARQQPSKRRKRKMSGGSTMSSGGGNTNNSNSKKKSPASTFALSSQVPDVMVVGEPTLMGGEFGDEDERLITRLENTQFDAANGIDDEDSFNNSPALGANSPWNSKPPSSQESKSENPTSQASQ
binding: binds
